Test results published in PubChem BioAssay AID540276 (National Center for Advancing Translational Sciences (NCATS), 2011).
About 5,400 (1.8%) of roughly 300,000 compounds were called active. The shares of active, inactive and inconclusive entries below differ from those in the screen. The call rests on the fitted dose curve; tested in HEK293 cells. Potencies beside an inconclusive call are fits to weak or partial responses and may not hold up. More than one record can exist for a structure, and the calls need not agree.

test: qHTS for inhibitors of binding or entry into cells for Marburg Virus; conditions: Marburg virus pseudotyped entry inhibition, cell reporter; activity change, negative = inhibition: at 37.8 µM (top of the series) unless noted
On the % scale 0 is the no-effect control and ±100 the full control effect; potency means the concentration at half of the fitted maximal effect.

Row | SMILES | Potency | activity change, negative = inhibition
1 | CC[n+]1cc(-c2ccccc2)nc(N2CCOCC2)n1 | inconclusive: 1.83 µM [inhibitor, full curve, poor fit] | –
2 | CCNc1nc(C23CC4CC(CC(C4)C2)C3)cs1 | inconclusive: 35.5 µM [inhibitor, single point] | –
3 | COc1ccc(N2CCN(C(=O)c3ccc4c(c3)CCN4S(C)(=O)=O)CC2)cc1 | inconclusive: 1 µM [activator, full curve, poor fit] | –
4 | O=C(O)CCCc1ccc(N(CCCl)CCCl)cc1 | active: 3.16 µM | –
5 | OCC1(Cc2ccccc2C(F)(F)F)CCN(Cc2ccccc2)CC1 | inconclusive: 11.2 µM [inhibitor, partial curve, poor fit] | –
6 | CCCN(CCC)c1nc(N)nc(-c2cc(Cl)ccc2OC)n1 | inconclusive: 35.5 µM [inhibitor, single point] | –
7 | COc1ccc(OC)c(/C=N/NC(=O)C(=O)N2CCCCCC2)c1 | – | inactive: -4.24%
8 | O=C(O)Cc1coc2ccc3ccccc3c12 | – | inactive: 7.46% [at 46.1 µM]
9 | Brc1cccc(C2Nc3cccc4cccc(c34)N2)c1 | – | inactive: -0.807% [at 46.1 µM]
10 | COc1ccc(C(=O)n2nc(C)c(Br)c2C)cc1OC | inconclusive: 5.62 µM [activator, single point] | –
11 | CC(C)C(=O)Nc1cccc(NC(=S)NC(=O)c2ccccc2Cl)c1 | inconclusive: 0.92 µM [inhibitor, full curve, poor fit] | –
12 | COCCn1nc2cc(C(=O)NCc3cc(C(F)(F)F)cc(C(F)(F)F)c3)ccc2c1OC | – | inactive: -0.263%
13 | Cc1cc(C)cc(N2CN=c3s/c(=C\c4ccco4)c(=O)n3C2)c1 | inconclusive: 35.5 µM [activator, single point] | –
14 | COc1ccccc1CNC(=O)c1cc2c(C)nn(Cc3ccc(F)cc3)c2s1 | inconclusive: 20 µM [inhibitor, partial curve, poor fit] | –
15 | O=S(=O)(c1ccc(-c2csc(Nc3ccc(F)cc3)n2)cc1)N1CCCC1 | inconclusive: 0.562 µM [inhibitor, full curve, poor fit] | –
16 | COc1cc(C2C(C#N)=C(N)OC3=C2C(=O)CCC3)cc2c1OCO2 (stereo not given) | inconclusive: 0.891 µM [inhibitor, partial curve, poor fit] | –
17 | CCCCN(C(=O)CCCc1nc2ccccc2s1)c1c(N)n(CCCC)c(=O)[nH]c1=O | inconclusive: 0.631 µM [inhibitor, single point] | –
18 | COCCCNC(=O)C1CCN(c2cc(C)nc3c(-c4ccc(OC)c(OC)c4)c(C)nn23)CC1 | – | inactive: 11% [at 46.1 µM]
19 | COc1cccc(CC2(CO)CCCN(Cc3sc(N4CCCC4)nc3Cl)C2)c1 (stereo not given) | inconclusive: 10 µM [inhibitor, partial curve, poor fit] | –
20 | COc1ccc(-c2cc(C(=O)NC3CCCC3)c3ccccc3n2)cc1OC | – | inactive: -0.341% [at 46.1 µM]
21 | CC(C)CC(C(=O)NC1CCCC1)N(Cc1ccc2c(c1)OCO2)C(=O)c1snc(C(N)=O)c1N (stereo not given) | inconclusive: 6.31 µM [activator, single point] | –
22 | O=C1CC(Sc2nnc(-c3ccccc3)o2)C(=O)N1c1ccccc1 (stereo not given) | inconclusive: 32.6 µM [inhibitor, single point] | –

A section from further up, as a working copy:
Row | SMILES | Potency | activity change, negative = inhibition
19 | COc1cccc(CC2(CO)CCCN(Cc3sc(N4CCCC4)nc3Cl)C2)c1 (stereo not given) | inconclusive: 10 µM [inhibitor, partial curve, poor fit] | –
20 | COc1ccc(-c2cc(C(=O)NC3CCCC3)c3ccccc3n2)cc1OC | – | inactive: -0.341% [at 46.1 µM]

(list continues)

Row | SMILES | Potency | activity change, negative = inhibition
23 | CC(C)=C1SC(N2CCCCC2)=NC1=O | – | inactive: 4.07%
24 | Cc1ccc(S(=O)(=O)Cn2nnnc2C(C(C)C)N2CCN(c3nc4ccccc4s3)CC2)cc1 (stereo not given) | inconclusive: 7.94 µM [inhibitor, partial curve, poor fit] | –
25 | CCc1cc2c(N3CCN(C(=O)c4ccco4)CC3)ncnc2s1 | – | inactive: -23.6%
26 | CC(=O)O[C@@H]1N=C(c2ccccc2)c2ccccc2NC1=O | – | inactive: 15%
27 | CCOc1ccc(S(=O)(=O)NC(C)(C)C)cc1-c1nc2c(C(C)(C)C)nn(C)c2c(=O)[nH]1 | inconclusive: 20.6 µM [inhibitor, partial curve] | –
28 | CCOCC(=O)Nc1cccc(OC)c1 | – | inactive: 5.3%
29 | O=c1[nH]c2cc([N+](=O)[O-])c([N+](=O)[O-])cc2[nH]c1=O | inconclusive: 20.6 µM [activator, single point] | inconclusive: -5.87% [inhibitor]
30 | Cc1ccc(F)cc1CNC(=O)C1CCC(=O)N(CCCN2CCCC2=O)C1 (stereo not given) | inconclusive: 14.1 µM [inhibitor, partial curve, poor fit] | –
31 | CCN1C(=S)SC(=O)C1=C1C=C(C)N(Cc2ccco2)C(C)=C1 | inconclusive: 10 µM [inhibitor, partial curve, poor fit] | –
32 | O=C1c2sc3nc4n(c(=O)c3c2CCC1Br)CCCCC4 (stereo not given) | – | inactive: -7.68%
33 | CCCCn1c(=S)[nH]c2ccccc2c1=O | inconclusive: 0.891 µM [activator, partial curve, poor fit] | –
34 | CCNC(=S)N1CCN(c2ccccc2OCC)CC1 | – | inactive: -25.2%
35 | O=C(NC1(C(F)(F)F)NC(=O)N(C2CCCCC2)C1=O)c1ccco1 (stereo not given) | inconclusive: 11.2 µM [inhibitor, partial curve, poor fit] | –
36 | COc1ccccc1NC(=S)NCCc1ccc(S(N)(=O)=O)cc1 | – | inactive: -6.29% [at 14.2 µM]
37 | Cc1cc(C)c(C(=O)Nc2ccccc2)c(SCC(=O)Nc2ccc(Br)cc2C)n1 | inconclusive: 5.62 µM [inhibitor, single point] | –
38 | O=C(CC1C(=O)NCCN1Cc1cccc(Oc2ccccc2)c1)NCCc1ccccn1 (stereo not given) | inconclusive: 8.91 µM [inhibitor, single point] | –
39 | COC(=O)c1c(NC(=O)CC2SC(N)=NC2=O)sc2c1CCC(C)C2 (stereo not given) | inconclusive: 3.55 µM [inhibitor, full curve, poor fit] | –
40 | COc1ccc(C2CC(=O)c3cnc(N4CCN(Cc5ccccc5)CC4)nc3C2)cc1 (stereo not given) | inconclusive: 2.24 µM [activator, single point] | –
41 | CN(C)c1ccc(C(c2nnnn2CCOC(=O)Nc2ccc(Cl)cc2)N2CCOCC2)cc1 (stereo not given) | – | inactive: -19.3% [at 46.1 µM]
42 | CC(O)c1nc2ccccc2n1Cc1nnc(-c2ccc(Cl)cc2)o1 (stereo not given) | – | inactive: 8.55%
43 | CN(C)Cc1cc2ccccc2c2c1COC2 | inconclusive: 1 µM [inhibitor, full curve, poor fit] | –
44 | CC(=O)/C(C)=N\O | inconclusive: 0.0891 µM [activator, full curve, poor fit] | –
